Measurements reported in PubChem BioAssay AID2685 (National Center for Advancing Translational Sciences (NCATS), 2010).
The other results are listed elsewhere or left out. Further columns of the screen follow, without active or inactive calls. Compounds called inactive in the main read-out are mostly missing here. The note in brackets gives the kind of curve behind each potency; many fits are weak.

Experiment: qHTS Assay for Lipid Storage Modulators in Drosophila S3 Cells;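 as to cell number change: cells counted by Cell Tracker Red CMTPX staining in the red channel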
Details: BODIPY lipid droplet fluorescence, 18-24 h; for cell number change: measured here: cell count max response, cells fed with added oleic acid
Summary of the method: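 Drosophila S3 cells loaded with oleic acid (400 uM, as added) and compounds at several concentrations; lipid droplets imaged by 488-nm laser-scanning cytometry, 500–530 nm intensity and object ratio to cell channel. Percent activity normalized to 20 uM Triacsin C.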

[1] = measured here: cell number channel AC50, cells fed with added oleic acid
[2] = measured here: lipid fluorescence (Fed channel) AC50, cells fed with added oleic acid

SMILES | cell number change [%] | AC50 [1] | AC50 [2]
COc1ccc(CCNC(=O)CSc2cn(Cc3ccccc3)c3ccccc23)cc1OC | -35.7 | 8.2 µM [falling, partial curve] | 8.2 µM [falling, partial curve, poor fit]
O=C(CN1C(=O)NC(c2ccccc2)(c2ccccc2)C1=O)Nc1ccc2[nH]c(=O)[nH]c2c1 | -44.9 | 29.1 µM [falling, single point] | –
CCOC(=O)NC(=O)CN1C(=O)NC(C)(c2ccccc2)C1=O (configuration not stated) | 45.8 | 29.1 µM [rising, single point] | –
CCOC(=O)CNC(=O)Nc1nnc(-c2ccc(OCC)cc2)o1 | -1.88 | – | 2.31 µM [rising, single point]
COc1ccccc1N(C)S(=O)(=O)c1ccc(C(=O)OCC(=O)Nc2ccc(C(N)=O)cc2)cc1 | -13.6 | – | 10.3 µM [falling, partial curve, poor fit]
Cc1nc2c(Cl)cc(Cl)cc2[nH]1 | -21.3 | – | 0.517 µM [falling, full curve]
COc1ccc(-n2nc(C(=O)NCC(=O)NCCc3ccc(OC)c(OC)c3)c3ccccc3c2=O)cc1Cl | -6.35 | – | 29.1 µM [falling, single point]
Cc1c(Cc2ccccc2)c(NCCN(C)C)n2c(nc3ccccc32)c1C#N | 12.4 | – | 1.84 µM [rising, full curve, poor fit]
CC(C)C1(CCNC(=O)c2cccs2)CCOC(C)(C)C1 (configuration not stated) | – | – | 29.1 µM [falling, single point]
COc1ccc(CCNC(=O)Cn2ccc3c(OC)cccc3c2=O)cc1OC | -51.1 | 16.4 µM [falling, partial curve, poor fit] | 0.82 µM [falling, full curve]
O=C(Nc1ccc(OC(F)(F)F)cc1)C1CCCN(S(=O)(=O)c2cccnc2)C1 (configuration not stated) | -11.5 | 0.461 µM [falling, full curve, poor fit] | –
COc1ccccc1C(CNC(=O)c1cccc(S(=O)(=O)Nc2ccc(C)cc2)c1)N(C)C (configuration not stated) | 30.4 | 0.103 µM [rising, full curve, poor fit] | 29.1 µM [rising, single point]
CC(CNC(=O)COc1ccc2c(c1)OCO2)c1ccccc1 (configuration not stated) | -7.34 | – | 0.0291 µM [rising, full curve, poor fit]
COc1ccc(/C=C(/NC(=O)c2ccccc2)C(=O)NC2CCS(=O)(=O)C2)cc1 (configuration not stated) | -9.18 | – | 0.651 µM [falling, full curve, poor fit]
C(=N\N1CCN(Cc2cccc3ccccc23)CC1)/c1cccs1 | 32 | 23.1 µM [rising, single point] | –
Cc1ccc(S(=O)(=O)c2c(COC(=O)c3ccc(Cl)cc3)c(-c3ccccc3)nn2C)cc1 | -13.3 | – | 1.3 µM [rising, full curve, poor fit]
O=C(OCCN=C1NS(=O)(=O)c2ccccc21)C1CC(=O)N(c2ccc3ccccc3c2)C1 (configuration not stated) | 26.4 | – | 18.4 µM [rising, single point]
Clc1ccc(C2CC(c3ccccc3)Nc3ncnn32)cc1 (configuration not stated) | 51.3 | 1.3 µM [rising, full curve] | 0.366 µM [rising, full curve]
O=C1CCCc2c1nc(-c1ccccc1)n2O | -1.02 | – | –
CC(C)N1C(=O)N(c2cccc(Cl)c2)C(C)(O)CC1(C)C (configuration not stated) | -4.65 | – | 1.3 µM [falling, full curve]
O=C(N/N=C/C(c1ccccc1)c1ccccc1)c1ccccc1F | -41.5 | 10.3 µM [falling, single point] | –
CCN(CC)CCCNC(=O)c1oc2ccc(S(=O)(=O)N3CC(C)CC(C)C3)cc2c1C (configuration not stated) | -4.96 | – | 29.1 µM [rising, single point]
CCOC(=O)c1sc(NC(=O)CSc2nnc(C)s2)c(C(=O)OCC)c1C | -5.85 | – | 2.06 µM [rising, partial curve, poor fit]
O=C(CNC(=O)c1cccc(F)c1)N/N=C/c1cc(Br)ccc1OC(=O)/C=C/c1ccco1 | -0.392 | – | 3.66 µM [falling, partial curve, poor fit]
O=C(CCn1c(=O)oc2ccccc21)NCCCN1CCCC1=O | -42.2 | 5.8 µM [falling, full curve] | –
O=C(NC1CC1)C1CCN(C2CCN(C(=O)c3ccc4cccc(F)c4n3)CC2)CC1 | -7.04 | – | 4.11 µM [falling, single point]
CN(C)C(=O)/C(=C/c1ccc(-c2cccc([N+](=O)[O-])c2)o1)NC(=O)c1ccccc1 | -26.4 | – | –
Cc1ccc(S(=O)(=O)N2CCC(C)CC2)cc1 | -9.94 | – | –
COc1ccc(N2CCN(C(=O)Cc3coc4cc(C)ccc34)CC2)cc1 | – | 0.058 µM [falling, full curve, poor fit] | –

Three compounds from above, sorted by count of non-hydrogen atoms, descending:
SMILES | cell number change [%] | AC50 [1] | AC50 [2]
COc1ccccc1C(CNC(=O)c1cccc(S(=O)(=O)Nc2ccc(C)cc2)c1)N(C)C (configuration not stated) | 30.4 | 0.103 µM [rising, full curve, poor fit] | 29.1 µM [rising, single point]
O=C(Nc1ccc(OC(F)(F)F)cc1)C1CCCN(S(=O)(=O)c2cccnc2)C1 (configuration not stated) | -11.5 | 0.461 µM [falling, full curve, poor fit] | –
O=C(N/N=C/C(c1ccccc1)c1ccccc1)c1ccccc1F | -41.5 | 10.3 µM [falling, single point] | –
